This note sets out measurements from the supplement of paper PMC3682954.

The test system of this assay is RAW 264.7. In words: HMGB1-induced TNF-alpha production relative to HMGB1-stimulated control; higher = more TNF-alpha secretion (less inhibition). To be noted: stimulus: HMGB1 5 ug/ml, 18 h.
Setting [1] is: compound concentration: 1 ug/ml.

Values joined by “and” are separate entries in the source; they are usually repeats but may differ in a detail not shown here. Equal entries are not always repeated. Structures can show the parent of a compound that is named as a salt. ± gives the standard deviation of the averaged measurements. This is one part of the list. Single values are uncertain, as repeats are few or missing.

Consider `O=c1[nH]c(=O)c2ccccc2o1`, for which the “HMGB1-induced TNF-alpha production” value (compound concentration: 3 uM) worked out at 98.7%.

As to `Nc1ncnc2c1ncn2C1CCCO1` (stereo unspecified), where the note is “compound concentration: 3 uM”, the “HMGB1-induced TNF-alpha production” value turned out to be 99.1%.

As to `Nc1ccn([C@@H]2O[C@H](CO)[C@@H](O)[C@@H]2O)c(=O)n1`, under “compound concentration: 3 uM”, the “HMGB1-induced TNF-alpha production” value is 79.7 ± 2.2%.

As to `Nc1ccn([C@@H]2O[C@H](CO)[C@@H](O)[C@@H]2O)c(=O)n1` [Cytosine-1-beta-D-arabinofuranoside hydrochloride], the “HMGB1-induced TNF-alpha production” value (compound concentration: 3 uM) was 116%.

`Nc1ccn([C@@H]2O[C@H](CO)[C@@H](O)[C@@H]2O)c(=O)n1` [Cytarabine]: under “compound concentration: 3 uM”, the “HMGB1-induced TNF-alpha production” value is 104 ± 30%.

Consider `O=C(NCCO)c1ccc2c(c1)nc(Nc1cccc(Cl)c1)c1ccncc12` [CK2 Inhibitor 2], for which the “HMGB1-induced TNF-alpha production” value (compound concentration: 3 uM) was 74.2%.

On to `COc1ccnc(C[S+]([O-])c2nc3cc(OC(F)F)ccc3[nH]2)c1OC` (stereo unspecified) [Pantoprazole], for which, under “compound concentration: 3 uM”, the “HMGB1-induced TNF-alpha production” value amounted to 81.5%.

In the case of `COc1ccnc(C[S+]([O-])c2nc3cc(OC(F)F)ccc3[nH]2)c1OC` (stereo unspecified), under “compound concentration: 3 uM”, the “HMGB1-induced TNF-alpha production” value was 96.2% and 83%.

As for `C[N+](C)(C)[C@@H](Cc1c[nH]c(=S)[nH]1)C(=O)[O-]` [Ergothioneine], the “HMGB1-induced TNF-alpha production” value (compound concentration: 3 uM) stood at 89%.

Take `O=c1[nH]cnc2c1ncn2[C@@H]1O[C@H](CO)[C@@H](O)[C@H]1O`: under “compound concentration: 3 uM”, the “HMGB1-induced TNF-alpha production” value was 94.1%.

For the compound `O=c1[nH]cnc2c1ncn2[C@@H]1O[C@H](CO)[C@@H](O)[C@H]1O` [Inosine], the “HMGB1-induced TNF-alpha production” value under setting [1] was determined as 80%.

Regarding `CCOc1ccccc1OC(c1ccccc1)C1CNCCO1` (stereo unspecified) [Reboxetine mesylate], the “HMGB1-induced TNF-alpha production” value (compound concentration: 3 uM) was 100%.

`O=C1NC(=O)/C(=C/c2ccc3c(c2)OC(F)(F)O3)S1`: the “HMGB1-induced TNF-alpha production” value (compound concentration: 3 uM) is 71.4%.

For `OC[C@H]1O[C@@H](n2cnc3c(N[C@H]4CCC[C@@H]4O)ncnc32)[C@@H](O)C1O` (stereo partly drawn) [Adenosine, N-(2-hydroxycyclopentyl)-, (1S-trans)- [CAS]], the “HMGB1-induced TNF-alpha production” value (compound concentration: 3 uM) worked out at 98.2%.

Consider `CCCCOc1cc(CC2CNC(=O)N2)ccc1OC` (stereo unspecified), for which the “HMGB1-induced TNF-alpha production” value (compound concentration: 3 uM) was 73.3% and 65.4%.

Consider `CC(C)Cn1c(=O)n(C)c(=O)c2[nH]cnc21` [3-Isobutyl-1-methylxanthine], for which the “HMGB1-induced TNF-alpha production” value (compound concentration: 3 uM) is 112%.

Take `COc1cc([C@@H]2c3cc4c(cc3[C@@H](O[C@@H]3O[C@@H]5CO[C@@H](c6cccs6)O[C@H]5[C@H](O)[C@H]3O)[C@H]3COC(=O)[C@H]23)OCO4)cc(OC)c1O`: the “HMGB1-induced TNF-alpha production” value (compound concentration: 3 uM) came out at 86.3 ± 16%.

`COc1ccc(-c2coc3ccc(OC4OC(COC(C)=O)C(OC(C)=O)C(OC(C)=O)C4OC(C)=O)c(OC(C)=O)c3c2=O)cc1` (stereo unspecified): under setting [1], the “HMGB1-induced TNF-alpha production” value turned out to be 59.9%.

`O=c1ccc2ccccc2o1` [Coumarin]: the “HMGB1-induced TNF-alpha production” value under setting [1] was 68.8%.

Take `O=c1ccc2ccccc2o1`: the “HMGB1-induced TNF-alpha production” value (compound concentration: 3 uM) came to 75.6%.

In the case of `CN(C)CCCN1c2ccccc2Sc2ccc(Cl)cc21`, where the note is “compound concentration: 3 uM”, the “HMGB1-induced TNF-alpha production” value was found to be 74.6%.

Consider `CN(C)CCCN1c2ccccc2Sc2ccc(Cl)cc21` [Chlorpromazine hydrochloride], for which the “HMGB1-induced TNF-alpha production” value (compound concentration: 3 uM) was 62.8 ± 6.8%.

As for `CN(C)CCCN1c2ccccc2Sc2ccc(Cl)cc21` [Chlorpromazine], under “compound concentration: 3 uM”, the “HMGB1-induced TNF-alpha production” value was 83.2%.

Consider `Cc1ccsc1/C=C/C1=NCCCN1C`, for which, under “compound concentration: 3 uM”, the “HMGB1-induced TNF-alpha production” value is 80.2%.

`Cc1ccsc1/C=C/C1=NCCCN1C` [Morantel tartrate]: the “HMGB1-induced TNF-alpha production” value (compound concentration: 3 uM) came to 70.6%.

Take `CCCCCCCCCCCCCCCCOP(=O)([O-])OCC[N+](C)(C)C` [Miltefosine]: the “HMGB1-induced TNF-alpha production” value (compound concentration: 3 uM) stood at 97.1%.

Consider `CCCCCCCCCCCCCCCCOP(=O)([O-])OCC[N+](C)(C)C`, for which the “HMGB1-induced TNF-alpha production” value (compound concentration: 3 uM) was 89.2%.

As for `CC(Cc1ccc(O)c(O)c1)(NN)C(=O)O` (stereo not drawn) [S-(-)-Carbidopa], for the setting “compound concentration: 3 uM”, the “HMGB1-induced TNF-alpha production” value stood at 88.7%.

With `CN(C)c1ccc(O)c2c1C[C@H]1C[C@H]3[C@H](N(C)C)C(O)=C(C(N)=O)C(=O)[C@@]3(O)C(O)=C1C2=O` [Minocycline], the “HMGB1-induced TNF-alpha production” value (compound concentration: 3 uM) turned out to be 86.1%.

In the case of `CN(C)c1ccc(O)c2c1C[C@H]1C[C@H]3[C@H](N(C)C)C(O)=C(C(N)=O)C(=O)[C@@]3(O)C(O)=C1C2=O`, where the note is “compound concentration: 3 uM”, the “HMGB1-induced TNF-alpha production” value is 93.7%.

Consider `CN(C)c1ccc(O)c2c1C[C@H]1C[C@H]3[C@H](N(C)C)C(O)=C(C(N)=O)C(=O)[C@@]3(O)C(O)=C1C2=O` [Minocycline hydrochloride], for which, for the setting “compound concentration: 3 uM”, the “HMGB1-induced TNF-alpha production” value was 102 ± 20%.

On to `CCN1CCc2nc(N)oc2CC1` [B-HT 933 dihydrochloride], for which the “HMGB1-induced TNF-alpha production” value (compound concentration: 3 uM) was determined as 75.5%.

With `C[N+](C)(C)CCOC(=O)CCC(=O)OCC[N+](C)(C)C` [Succinylcholine], the “HMGB1-induced TNF-alpha production” value (compound concentration: 3 uM) amounted to 96.3%.

`C[N+](C)(C)CCOC(=O)CCC(=O)OCC[N+](C)(C)C` [Succinylcholine chloride]: the “HMGB1-induced TNF-alpha production” value (compound concentration: 3 uM) came to 109%.

As to `COc1cc(-c2oc3cc(O)ccc3c(=O)c2O)cc(OC)c1OC` [Robinetin trimethyl ether], the “HMGB1-induced TNF-alpha production” value under setting [1] turned out to be 101%.

As for `O=c1c(O)c(-c2ccc(O)c(O)c2)oc2ccccc12`, the “HMGB1-induced TNF-alpha production” value under setting [1] amounted to 35.2%.

As to `CCOc1ccc2nc3cc(N)ccc3c(N)c2c1`, the “HMGB1-induced TNF-alpha production” value (compound concentration: 3 uM) is 78.8%.

Regarding `CCN(CC)CCNc1ccc(CO)c2sc3ccccc3c(=O)c12`, where the note is “compound concentration: 3 uM”, the “HMGB1-induced TNF-alpha production” value is 54.8 ± 6.8%.

Regarding `CCN(CC)CCNc1ccc(CO)c2sc3ccccc3c(=O)c12` [Hycanthone], for the setting “compound concentration: 3 uM”, the “HMGB1-induced TNF-alpha production” value worked out at 47.7%.

In the case of `CN(Cc1cnc2nc(N)nc(N)c2n1)c1ccc(C(=O)N[C@@H](CCC(=O)O)C(=O)O)cc1` [Methotrexate hydrate], for the setting “compound concentration: 3 uM”, the “HMGB1-induced TNF-alpha production” value worked out at 89.4%.

Consider `CN(Cc1cnc2nc(N)nc(N)c2n1)c1ccc(C(=O)N[C@@H](CCC(=O)O)C(=O)O)cc1` [Methotrexate], for which, for the setting “compound concentration: 3 uM”, the “HMGB1-induced TNF-alpha production” value stood at 79.3%.
